Measured values: PMC10933668
The exact form of at least one protein or probe is not confirmed. At least one result comes from cells or an extract, where the contact may be indirect.

Chains of the proteins cited; added tags and fusions are not shown. Residues count along the entry.
UniProt Q9NZQ7, 19-290: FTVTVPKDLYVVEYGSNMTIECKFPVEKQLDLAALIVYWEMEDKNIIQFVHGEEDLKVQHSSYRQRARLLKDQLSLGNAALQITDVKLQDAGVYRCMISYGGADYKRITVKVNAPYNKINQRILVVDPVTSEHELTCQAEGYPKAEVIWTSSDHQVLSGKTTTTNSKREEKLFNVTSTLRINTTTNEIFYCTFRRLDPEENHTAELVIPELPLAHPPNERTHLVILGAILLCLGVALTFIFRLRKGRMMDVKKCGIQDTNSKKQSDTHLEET
UniProt Q13308, 31-1070: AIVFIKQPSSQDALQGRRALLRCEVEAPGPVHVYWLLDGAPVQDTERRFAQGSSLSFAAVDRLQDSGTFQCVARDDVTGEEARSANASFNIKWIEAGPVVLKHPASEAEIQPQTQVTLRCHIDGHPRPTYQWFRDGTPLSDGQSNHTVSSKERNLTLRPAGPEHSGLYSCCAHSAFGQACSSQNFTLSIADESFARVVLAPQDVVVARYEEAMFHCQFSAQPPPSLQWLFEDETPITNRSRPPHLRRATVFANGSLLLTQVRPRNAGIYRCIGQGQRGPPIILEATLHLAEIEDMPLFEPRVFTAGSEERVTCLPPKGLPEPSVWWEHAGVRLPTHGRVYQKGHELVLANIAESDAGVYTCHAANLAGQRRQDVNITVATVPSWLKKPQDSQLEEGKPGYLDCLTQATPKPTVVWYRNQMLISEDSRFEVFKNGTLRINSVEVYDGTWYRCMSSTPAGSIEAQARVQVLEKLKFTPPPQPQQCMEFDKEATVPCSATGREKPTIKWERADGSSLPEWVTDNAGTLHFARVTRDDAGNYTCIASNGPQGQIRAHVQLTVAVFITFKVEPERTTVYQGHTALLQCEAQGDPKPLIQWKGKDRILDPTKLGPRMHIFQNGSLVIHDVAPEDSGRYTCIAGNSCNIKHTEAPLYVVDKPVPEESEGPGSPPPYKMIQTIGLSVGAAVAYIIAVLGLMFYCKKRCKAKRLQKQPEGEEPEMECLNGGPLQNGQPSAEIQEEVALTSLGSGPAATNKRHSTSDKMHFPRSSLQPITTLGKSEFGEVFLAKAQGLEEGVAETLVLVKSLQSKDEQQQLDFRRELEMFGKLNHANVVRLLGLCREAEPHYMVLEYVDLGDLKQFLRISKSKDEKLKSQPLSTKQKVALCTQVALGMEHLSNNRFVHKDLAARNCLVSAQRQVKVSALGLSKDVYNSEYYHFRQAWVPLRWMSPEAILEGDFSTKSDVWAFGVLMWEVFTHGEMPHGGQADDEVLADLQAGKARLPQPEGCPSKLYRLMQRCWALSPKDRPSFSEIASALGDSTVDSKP

Assays:
[1] = target: PD-L1 (PDL-1) (UniProt Q9NZQ7); assay: flow cytometry; settings: SKBR3 cells; Live-cell binding: about 1e5 cells in 200 uL D-PBS with 5 mM Mg2+, 37 C, 30 min, two washes, flow cytometry or confocal; protein on the cell surface; folded or branched DNA
[2] = target: PTK7 (UniProt Q13308); assay: confocal microscopy; settings: Nalm6 and 697 cells; Live-cell binding: about 1e5 cells in 200 uL D-PBS with 5 mM Mg2+, 37 C, 30 min, two washes, flow cytometry or confocal; protein on the cell surface; label: FAM or Cy5 (5'); folded or branched DNA
[3] = target: PTK7 (UniProt Q13308); assay: flow cytometry; settings: 5' phosphates, ligated into a circle by T4 DNA ligase, Live-cell binding: about 1e5 cells in 200 uL D-PBS with 5 mM Mg2+, 37 C, 30 min, two washes, flow cytometry or confocal, protein on the cell surface, folded or branched DNA

**Q.** Does ACAGGTTCTGGGGGGTGGGTGGGGAACCTGT [MJ5C] bind [1]?
**A.** Result: binds

**Q.** Does “GTCTAACTGCTGCGCCGCCGGGAAAATACTGTACGGTTAGAC [Sgc8]” bind [2]?
**A.** Result: binds

**Q.** What does the source list for “TGACTGATTTACGACCACTACAGCTAGCTTAGGGTTGGGGGTTGGTTGGCAGGCTAATGGAGCTCGTGGT / CGTAAATCAGTCAGTCTAACTGCTGCGCCGCCGGGAAAATACTGTACGGTTAGAC [CAR-ap9s-sgc8 bispecific circular aptamer]”?
**A.** binding result ([3]; CD19-KO-Nalm6 and CD19-KO-697 cells): binds; binding result ([3]; PTK7+ CCRF-CEM cells): binds
